In publication doi:10.1101/2023.06.21.546019:
No constants are given. Whether binding was seen depends on the method and setting. In cells and extracts the contact can be indirect. Some results given as binding are weak or reduced against the parent protein; the word gives no strength.

Chains of the proteins cited; added tags and fusions are not shown.
UniProt P11499: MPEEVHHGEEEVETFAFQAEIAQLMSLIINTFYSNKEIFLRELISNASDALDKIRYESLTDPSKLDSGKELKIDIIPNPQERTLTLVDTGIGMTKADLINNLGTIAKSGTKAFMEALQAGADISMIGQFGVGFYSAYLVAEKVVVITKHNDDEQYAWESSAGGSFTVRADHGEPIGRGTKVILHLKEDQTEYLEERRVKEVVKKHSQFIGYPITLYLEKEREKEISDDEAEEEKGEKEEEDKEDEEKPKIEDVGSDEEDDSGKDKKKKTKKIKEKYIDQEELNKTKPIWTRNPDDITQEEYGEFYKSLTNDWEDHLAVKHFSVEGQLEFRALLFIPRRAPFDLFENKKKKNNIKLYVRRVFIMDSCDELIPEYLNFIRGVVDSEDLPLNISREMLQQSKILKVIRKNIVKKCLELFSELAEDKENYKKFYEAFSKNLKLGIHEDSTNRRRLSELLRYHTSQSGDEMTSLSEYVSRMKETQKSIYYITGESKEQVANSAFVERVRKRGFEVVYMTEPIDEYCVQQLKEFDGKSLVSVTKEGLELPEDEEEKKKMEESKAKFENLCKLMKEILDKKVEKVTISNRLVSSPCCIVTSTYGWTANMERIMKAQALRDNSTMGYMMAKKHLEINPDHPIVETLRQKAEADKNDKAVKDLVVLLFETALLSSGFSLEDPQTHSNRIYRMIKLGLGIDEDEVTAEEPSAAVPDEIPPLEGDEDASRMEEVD
UniProt P42227: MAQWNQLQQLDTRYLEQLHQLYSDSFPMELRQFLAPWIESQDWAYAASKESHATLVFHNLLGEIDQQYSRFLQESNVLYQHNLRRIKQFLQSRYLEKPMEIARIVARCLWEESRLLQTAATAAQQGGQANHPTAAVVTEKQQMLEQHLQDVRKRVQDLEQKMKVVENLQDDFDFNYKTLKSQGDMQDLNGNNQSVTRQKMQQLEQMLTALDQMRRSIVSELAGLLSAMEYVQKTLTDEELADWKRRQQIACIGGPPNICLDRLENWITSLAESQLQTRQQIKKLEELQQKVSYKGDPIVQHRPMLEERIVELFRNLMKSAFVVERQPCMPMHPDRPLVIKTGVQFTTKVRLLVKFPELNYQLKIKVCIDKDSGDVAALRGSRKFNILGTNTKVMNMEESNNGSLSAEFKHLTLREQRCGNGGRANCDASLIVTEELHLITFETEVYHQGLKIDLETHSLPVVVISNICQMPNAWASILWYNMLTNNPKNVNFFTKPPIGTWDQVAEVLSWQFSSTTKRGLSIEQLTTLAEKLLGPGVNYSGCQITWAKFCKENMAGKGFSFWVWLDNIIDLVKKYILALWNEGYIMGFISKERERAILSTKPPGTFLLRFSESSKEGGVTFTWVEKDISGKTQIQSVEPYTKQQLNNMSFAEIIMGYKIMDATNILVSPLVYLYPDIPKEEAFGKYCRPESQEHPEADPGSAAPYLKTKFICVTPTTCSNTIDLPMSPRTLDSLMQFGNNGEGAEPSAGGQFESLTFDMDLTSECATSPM

Target: HSP90ab1 (heat shock protein 90 alpha, class B, member 1) (mouse (endogenous in primary cardiomyocytes)) (UniProt P11499)
Test: co-IP

binding: binds
Substance: p-STAT3 (phosphorylated signal transducer and activator of transcription 3) (from UniProt P42227 1-770)
